This series concerns ORC1-5 (WT, ORC1ΔN) N78S (human). Description: fluorescence anisotropy. The settings on record: no ATP, 10 mM Mg acetate, 25 mM HEPES-KOH pH 7.6, 300 mM K glutamate, 10% glycerol, 1 mM DTT, 0.01% NP-40, 0 or 1 mM ATP, 1 nM DNA, 30 min at 22 °C, Hill fit (Kd,app), recombinant protein.

Experimental findings from article PMC12830165 (The Journal of Biological Chemistry, 2025) are described below.

Construct, isoform or probe ends are uncertain for at least one entry. The comparison behind a weaker result is the experiment's own reference, which may not be listed here. At least one verdict was read from the data and is not stated in words by the source.

Turning to “TTTTGAAAAGCAAGCATAAAAGATCTAAACATAAAATCTG (double strand) [40 bp fluorescein dsDNA]”, the binding result is given as “binds more weakly”.
